This test concerns the target CEA抗原 (carcinoembryonic antigen, coated in ELISA) (UniProt P06731). Kind of test: ELISA, coated antigen.

Protein sequences, listed by entry. Tags and fused reporters are not part of them. Residues count along the entry.
UniProt P06731, residues 35-685: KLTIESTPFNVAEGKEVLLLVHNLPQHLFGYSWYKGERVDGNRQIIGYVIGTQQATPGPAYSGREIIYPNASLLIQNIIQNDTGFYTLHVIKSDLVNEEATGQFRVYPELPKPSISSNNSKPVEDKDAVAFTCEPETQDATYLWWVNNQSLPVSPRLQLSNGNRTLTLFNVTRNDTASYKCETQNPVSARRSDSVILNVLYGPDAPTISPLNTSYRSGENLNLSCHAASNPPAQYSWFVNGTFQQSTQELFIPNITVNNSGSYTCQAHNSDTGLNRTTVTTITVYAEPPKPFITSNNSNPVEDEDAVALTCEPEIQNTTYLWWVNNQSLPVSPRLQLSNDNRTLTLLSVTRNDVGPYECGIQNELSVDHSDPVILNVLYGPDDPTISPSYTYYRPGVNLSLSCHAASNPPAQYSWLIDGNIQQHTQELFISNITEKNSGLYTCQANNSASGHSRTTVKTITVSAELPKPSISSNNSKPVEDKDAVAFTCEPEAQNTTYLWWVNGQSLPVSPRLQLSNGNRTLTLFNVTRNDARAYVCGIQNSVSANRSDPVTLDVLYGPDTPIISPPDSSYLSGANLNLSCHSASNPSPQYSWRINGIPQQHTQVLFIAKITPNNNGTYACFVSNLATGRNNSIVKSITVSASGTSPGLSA

No constants are given. Whether binding was seen depends on the method and setting. Some results given as binding are weak or reduced against the parent protein; the word gives no strength.

B1: OLD-2ND-1-H3-scFv-mIgG1 (Fc fusion, not shown: a dimerising Fc or GST)
chain: EIVLTQSPGSLSSSPGERATLSCRASQSVANNFLAWYQQKAGQAPRLLIYGASSRATGIPDRFSGSGSGTDFTLTISRLEPEDFAVYFCQQYGISPLTFGPGTKVEIKGGGGSGGGGSGGGGSMAEVQLVESRGGLVQPGRSLRLSCAASGFTFDDYAMHWVRQAPGKGLEWVSAISGSGGSTYYADSVKGRFTISRDNSKNTLYLQMNSLRVEDTAVYYCAKGRYSSRWSASDIWGQGTMVTVSS
B1: the binding result is reported as “binds”.

The values are drawn from patent CN110862456A.
